Laboratory results published in patent publication US20140199316A1 (published 2014).
Results are given in words; binding and its absence hold for the method and conditions named. Some entries that bind do so weakly or less than the wild type. Sequences can lack the tags named with a protein.

By UniProt entry, the sequences of proteins in these tests, tags left out. Where a name states a change or a piece, a line headed by the entry shows the natural chain unless it says otherwise. Chains listed by the source or under a name are the forms on record and can include a tag or linker.
Hematopoietic Cell E-/L-selectin Ligand (HCELL), glycoform of CD44, from ML lysates (P16070, form named): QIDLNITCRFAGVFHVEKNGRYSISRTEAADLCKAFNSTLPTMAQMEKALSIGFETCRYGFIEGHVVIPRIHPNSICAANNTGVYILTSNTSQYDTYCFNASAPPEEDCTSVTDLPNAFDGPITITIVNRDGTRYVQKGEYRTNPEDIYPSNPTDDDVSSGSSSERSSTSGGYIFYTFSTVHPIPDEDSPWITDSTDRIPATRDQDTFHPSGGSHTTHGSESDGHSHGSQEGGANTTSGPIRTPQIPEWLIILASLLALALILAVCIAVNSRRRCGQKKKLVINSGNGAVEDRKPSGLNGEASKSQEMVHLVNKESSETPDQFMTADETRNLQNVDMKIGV

Biological target: Hematopoietic Cell E-/L-selectin Ligand (HCELL), glycoform of CD44, from ML lysates (human) (UniProt P16070)
Assay: western blot of ML lysates and WGA-purified glycoproteins, reducing SDS-PAGE

B1: recombinant mouse E-selectin-human Fc chimera (Fc fusion, UniProt Q00690 22-557, looked up, not shown: a dimerising Fc or GST)
chain: WYYNASSELMTYDEASAYCQRDYTHLVAIQNKEEINYLNSNLKHSPSYYWIGIRKVNNVWIWVGTGKPLTEEAQNWAPGEPNNKQRNEDCVEIYIQRTKDSGMWNDERCNKKKLALCYTASCTNASCSGHGECIETINSYTCKCHPGFLGPNCEQAVTCKPQEHPDYGSLNCSHPFGPFSYNSSCSFGCKRGYLPSSMETTVRCTSSGEWSAPAPACHVVECEALTHPAHGIRKCSSNPGSYPWNTTCTFDCVEGYRRVGAQNLQCTSSGIWDNETPSCKAVTCDAIPQPQNGFVSCSHSTAGELAFKSSCNFTCEQSFTLQGPAQVECSAQGQWTPQIPVCKAVQCEALSAPQQGNMKCLPSASGPFQNGSSCEFSCEEGFELKGSRRLQCGPRGEWDSKKPTCSAVKCDDVPRPQNGVMECAHATTGEFTYKSSCAFQCNEGFSLHGSAQLECTSQGKWTQEVPSCQVVQCPSLDVPGKMNMSCSGTAVFGTVCEFTCPDDWTLNGSAVLTCGATGRWSGMPPTCEAPVSPTRP
binding: binds
